We go through one compound from paper PMC4932475, “Evaluation of P-Glycoprotein Inhibitory Potential Using a Rhodamine 123 Accumulation Assay” (Pharmaceutics, 2016).

Amino acid sequences for entries named in this document (tags omitted).
UniProt P08183, whole entry: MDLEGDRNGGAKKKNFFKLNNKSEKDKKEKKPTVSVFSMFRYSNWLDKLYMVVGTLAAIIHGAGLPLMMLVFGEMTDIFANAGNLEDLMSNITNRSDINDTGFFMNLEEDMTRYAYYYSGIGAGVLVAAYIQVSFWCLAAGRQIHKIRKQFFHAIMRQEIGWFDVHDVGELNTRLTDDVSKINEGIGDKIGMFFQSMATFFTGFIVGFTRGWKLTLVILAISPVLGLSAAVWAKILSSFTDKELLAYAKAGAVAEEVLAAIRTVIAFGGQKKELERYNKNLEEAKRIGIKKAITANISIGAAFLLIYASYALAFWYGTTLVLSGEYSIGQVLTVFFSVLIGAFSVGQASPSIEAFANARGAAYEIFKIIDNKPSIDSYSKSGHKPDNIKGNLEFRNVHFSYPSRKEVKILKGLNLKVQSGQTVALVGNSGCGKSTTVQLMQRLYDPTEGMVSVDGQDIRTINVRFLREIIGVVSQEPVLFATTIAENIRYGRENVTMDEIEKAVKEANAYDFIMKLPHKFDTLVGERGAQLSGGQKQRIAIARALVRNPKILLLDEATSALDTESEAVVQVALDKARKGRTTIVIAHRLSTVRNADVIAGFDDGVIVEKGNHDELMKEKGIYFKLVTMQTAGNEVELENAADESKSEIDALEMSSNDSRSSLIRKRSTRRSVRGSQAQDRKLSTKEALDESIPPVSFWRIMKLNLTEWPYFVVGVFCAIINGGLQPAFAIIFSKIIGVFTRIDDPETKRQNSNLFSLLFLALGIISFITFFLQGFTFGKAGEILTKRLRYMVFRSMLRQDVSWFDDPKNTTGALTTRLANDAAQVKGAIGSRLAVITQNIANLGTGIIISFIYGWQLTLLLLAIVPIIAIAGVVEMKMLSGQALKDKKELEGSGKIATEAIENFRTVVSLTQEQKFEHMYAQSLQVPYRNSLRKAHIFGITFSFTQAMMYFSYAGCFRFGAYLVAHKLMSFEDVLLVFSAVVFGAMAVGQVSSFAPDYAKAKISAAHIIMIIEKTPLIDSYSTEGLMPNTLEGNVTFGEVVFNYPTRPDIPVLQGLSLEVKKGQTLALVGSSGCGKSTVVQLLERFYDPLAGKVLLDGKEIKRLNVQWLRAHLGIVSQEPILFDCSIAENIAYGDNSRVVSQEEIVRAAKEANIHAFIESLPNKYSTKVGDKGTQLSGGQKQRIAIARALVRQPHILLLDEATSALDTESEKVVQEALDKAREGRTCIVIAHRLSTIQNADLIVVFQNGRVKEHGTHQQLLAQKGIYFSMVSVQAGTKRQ

“And” between values parts separate entries of the source, which are not always exact repeats. Identical values can stand only once.

The target in series [1] is T1, P-gp (Homo sapiens, UniProt P08183). The conditions noted are these: perpetrator in clinical digoxin DDI study; ref Poirier et al. [41]; cited from earlier work.
In series [2] the target is T1, P-gp. As to conditions: outcome versus clinic in brackets (TP, FP, TN, FN).
Series [3] concerns P-gp. The arrangement: method as in Poirier et al. [41]. The conditions noted are these: digoxin efflux ratio, MDR1-transfected cells; ref Poirier et al. [41]; cited from earlier work.

`CCCCc1oc2ccccc2c1C(=O)c1cc(I)c(OCCN(CC)CC)c(I)c1` [Amiodarone, amiodarone]: the “[I1] total plasma concentration” value in series [1] was 2.49 µM and 2.20 µM. The “P-gp Inhibition Prediction (FDA Criteria) Digoxin IC50” value in series [2] (IC50 from digoxin bidirectional transport assay of Poirier et al. [41]) is given as “+ (TP)”. In series [2] (IC50 from rhodamine 123 assay), the “P-gp Inhibition Prediction (FDA Criteria) Rhodamine 123 IC50” value was “+ (TP) ^9”. Moreover, the IC50 in series [3] was 9.6 µM.
